Melanoma cell counts after drug treatment

Source: doi:10.1371/journal.pone.0140310, primary screening data, rounded.

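The test systems are human melanoma cell lines, treated with two drugs together for 72 h and then stained and imaged. Values are the number of DAPI-stained nuclei as a percentage of the DMSO control: 100 is no effect, lower means fewer cells. Concentrations were fixed for each drug; these are the lower of two levels, a fifth of the higher. No replicate spread is given; individual values may be noisy.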
This is part of the screen, not chosen by result.
A dash means that no value is listed here.

Drug key:
AZD7762: NC(=O)Nc1cc(-c2cccc(F)c2)sc1C(=O)N[C@H]1CCCNC1 at 20 nM
ZM336372: Cc1ccc(NC(=O)c2cccc(N(C)C)c2)cc1NC(=O)c1ccc(O)cc1 at 2000 nM
tanespimycin: C=CCNC1=C2C[C@@H](C)C[C@H](OC)[C@H](O)[C@@H](C)/C=C(\C)[C@H](OC(N)=O)[C@@H](OC)/C=C\C=C(/C)C(=O)NC(=CC1=O)C2=O at 2 nM
vorinostat: O=C(CCCCCCC(=O)Nc1ccccc1)NO at 80 nM
sorafenib: CNC(=O)c1cc(Oc2ccc(NC(=O)Nc3ccc(Cl)c(C(F)(F)F)c3)cc2)ccn1 at 400 nM
SNS-032: CC(C)(C)c1cnc(CSc2cnc(NC(=O)C3CCNCC3)s2)o1 at 10 nM
MK-2206: NC1(c2ccc(-c3nc4ccn5c(=O)[nH]nc5c4cc3-c3ccccc3)cc2)CCC1 at 400 nM
BI-D1870: CC(C)CCN1c2nc(Nc3cc(F)c(O)c(F)c3)ncc2N(C)C(=O)C1C (stereo not given) at 200 nM
nilutamide: CC1(C)NC(=O)N(c2ccc([N+](=O)[O-])c(C(F)(F)F)c2)C1=O at 1000 nM
indole-3-carbinol: OCc1c[nH]c2ccccc12 at 800 nM
pazopanib: Cc1ccc(Nc2nccc(N(C)c3ccc4c(C)n(C)nc4c3)n2)cc1S(N)(=O)=O at 400 nM
nutlin-3: COc1ccc(C2=N[C@@H](c3ccc(Cl)cc3)[C@@H](c3ccc(Cl)cc3)N2C(=O)N2CCNC(=O)C2)c(OC(C)C)c1 at 100 nM
SU6656: CN(C)S(=O)(=O)c1ccc2c(c1)/C(=C/c1cc3c([nH]1)CCCC3)C(=O)N2 at 400 nM
ruxolitinib: N#CC[C@H](C1CCCC1)n1cc(-c2ncnc3[nH]ccc23)cn1 at 1000 nM
YM155: COCC[n+]1c2c(n(Cc3cnccn3)c1C)C(=O)c1ccccc1C2=O at 0.4 nM
CX-4945: O=C(O)c1ccc2c(c1)nc(Nc1cccc(Cl)c1)c1ccncc12 at 400 nM
PLX4720: CCCS(=O)(=O)Nc1ccc(F)c(C(=O)c2c[nH]c3ncc(Cl)cc23)c1F at 80 nM

Drugs,A2058,A375,C32,A101D
SNS-032 and CX-4945,95.2,84.8,95.2,104
sorafenib and BI-D1870,100,-,112,94.2
nilutamide and MK-2206,92.8,109,88.4,97.5
sorafenib and AZD7762,93.7,79.2,104,80.7
SU6656 and vorinostat,94.5,95.4,106,95.3
pazopanib and AZD7762,102,65.0,101,81.0
YM155 and ZM336372,54.4,80.1,107,95.4
vorinostat and indole-3-carbinol,95.0,104,124,97.6
sorafenib and vorinostat,102,110,93.6,100
ZM336372 and MK-2206,107,97.1,94.6,104
vorinostat and tanespimycin,96.3,89.3,82.0,95.1
SU6656 and pazopanib,112,105,94.8,76.7
nilutamide and CX-4945,95.9,111,104,130
ruxolitinib and SU6656,92.1,136,79.9,104
nilutamide and tanespimycin,107,108,61.1,103
indole-3-carbinol and SNS-032,86.8,85.7,86.6,97.3
PLX4720 and SNS-032,93.7,81.7,69.6,87.6
ZM336372 and indole-3-carbinol,99.3,93.7,114,108
ZM336372 and PLX4720,98.0,88.3,88.0,90.4
indole-3-carbinol and AZD7762,110,46.1,116,86.8
CX-4945 and SU6656,93.7,94.9,89.8,85.0
nutlin-3 and ruxolitinib,98.4,114,103,134
MK-2206 and SU6656,104,88.3,76.9,73.3
ZM336372 and pazopanib,95.4,97.2,105,95.0
ruxolitinib and YM155,69.2,107,94.6,-
tanespimycin and AZD7762,108,83.4,88.1,86.1
ZM336372 and CX-4945,96.2,90.3,90.8,94.9
nilutamide and indole-3-carbinol,95.3,93.5,98.0,99.4
PLX4720 and nilutamide,111,69.6,92.5,88.5
BI-D1870 and pazopanib,105,-,105,82.8
sorafenib and SNS-032,97.7,86.1,105,98.1
BI-D1870 and tanespimycin,108,-,59.5,84.2
sorafenib and ZM336372,95.7,127,94.8,91.2
AZD7762 and vorinostat,121,62.3,123,93.3

The first 2 entries again:

| Drugs | A2058 | A375 | C32 | A101D |
|---|---|---|---|---|
| SNS-032 and CX-4945 | 95.2 | 84.8 | 95.2 | 104 |
| sorafenib and BI-D1870 | 100 | - | 112 | 94.2 |